According to patent US12331032B2, “Quinone reductase 2 inhibitor compounds and uses thereof” (DUKE UNIVERSITY, priority 2018, dated 2025):
At least one structure is not confirmed: it was looked up by name or label, or the drawing left a doubt.

Molecular target: T1, QR2 (Homo sapiens, UniProt P16083)
T1 sequence (P16083 1-231): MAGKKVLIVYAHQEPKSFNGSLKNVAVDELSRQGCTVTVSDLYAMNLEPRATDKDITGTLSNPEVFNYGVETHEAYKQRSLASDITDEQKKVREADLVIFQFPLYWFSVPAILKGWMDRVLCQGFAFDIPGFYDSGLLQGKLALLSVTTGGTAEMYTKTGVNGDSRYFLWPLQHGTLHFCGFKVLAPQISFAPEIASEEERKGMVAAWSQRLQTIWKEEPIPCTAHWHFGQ
Assay: Crystal structure of QR2 in complex with FADH and inhibitor
Assay type: binding
Settings: reduced and oxidized QR2 complex with FADH

## COc1ccc2c(NCc3cccnc3)ccnc2c1 [QR2I-44, 7-methoxy-4-(pyridin-3-yl) methylaminoquinoline]
  binding to QR2 in crystal structure: bind to QR2 and FADH in a mode resembling the natural substrate quinone
